Test results: the supplement of paper PMC8612539
Values after ≈ are worked out from the molar mass of the structure shown. The source gives many values for each of these; only a part stands here.

Test system: Escherichia coli
Assay: minimum inhibitory concentration (MIC)
Method: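 Broth microdilution MIC (Sensititre BOPO7F bovine plate, CLSI methods) of 19 antimicrobials against field isolates of P. multocida, M. haemolytica, H. somni (deep nasopharyngeal swabs) and E. coli, Enterococcus spp. (rectal swabs) from weaned dairy heifers. Incubation 16-24 h at 35 C. MIC is the lowest concentration preventing visible growth. Values with <= or > lie at the tested range limits. Trimethoprim-sulfamethoxazole is given as the trimethoprim component of a 1:19 mixture.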

Compound CCC[C@@H]1C[C@@H](C(=O)N[C@@H]([C@H]2O[C@H](SC)[C@H](O)[C@@H](O)[C@H]2O)[C@H](C)Cl)N(C)C1 [Clindamycin] has a minimum inhibitory concentration (isolate (source animal id): 221) greater than 16 µg/mL, a minimum inhibitory concentration (isolate (source animal id): 222) greater than 16 µg/mL and a minimum inhibitory concentration (isolate (source animal id): 223) greater than 16 µg/mL. For the same compound, the minimum inhibitory concentration (isolate (source animal id): 224) was greater than 16 µg/mL, the minimum inhibitory concentration (isolate (source animal id): 225) was greater than 16 µg/mL and the minimum inhibitory concentration (isolate (source animal id): 226) was greater than 16 µg/mL. For the same compound, the minimum inhibitory concentration (isolate (source animal id): 227) was greater than 16 µg/mL, the minimum inhibitory concentration (isolate (source animal id): 228) was greater than 16 µg/mL and the minimum inhibitory concentration (isolate (source animal id): 229) was greater than 16 µg/mL. For the same compound, the minimum inhibitory concentration (isolate (source animal id): 230) was greater than 16 µg/mL, the minimum inhibitory concentration (isolate (source animal id): 231) was greater than 16 µg/mL and the minimum inhibitory concentration (isolate (source animal id): 232) was greater than 16 µg/mL. The minimum inhibitory concentration (isolate (source animal id): 233) was greater than 16 µg/mL, the minimum inhibitory concentration (isolate (source animal id): 234) was greater than 16 µg/mL and the minimum inhibitory concentration (isolate (source animal id): 235) was greater than 16 µg/mL. The minimum inhibitory concentration (isolate (source animal id): 236) was greater than 16 µg/mL, the minimum inhibitory concentration (isolate (source animal id): 237) was greater than 16 µg/mL and the minimum inhibitory concentration (isolate (source animal id): 238) was 16 µg/mL (≈ 37.6 µM). It also gave a minimum inhibitory concentration (isolate (source animal id): 239) greater than 16 µg/mL, a minimum inhibitory concentration (isolate (source animal id): 240) greater than 16 µg/mL and a minimum inhibitory concentration (isolate (source animal id): 241) greater than 16 µg/mL. For the same compound, the minimum inhibitory concentration (isolate (source animal id): 242) was greater than 16 µg/mL, the minimum inhibitory concentration (isolate (source animal id): 243) was greater than 16 µg/mL and the minimum inhibitory concentration (isolate (source animal id): 244) was greater than 16 µg/mL. The minimum inhibitory concentration (isolate (source animal id): 245) was greater than 16 µg/mL, the minimum inhibitory concentration (isolate (source animal id): 246) was greater than 16 µg/mL and the minimum inhibitory concentration (isolate (source animal id): 247) was greater than 16 µg/mL. It also gave a minimum inhibitory concentration (isolate (source animal id): 248) greater than 16 µg/mL, a minimum inhibitory concentration (isolate (source animal id): 249) greater than 16 µg/mL and a minimum inhibitory concentration (isolate (source animal id): 250) greater than 16 µg/mL. It also gave a minimum inhibitory concentration (isolate (source animal id): 251) greater than 16 µg/mL, a minimum inhibitory concentration (isolate (source animal id): 252) greater than 16 µg/mL and a minimum inhibitory concentration (isolate (source animal id): 253) greater than 16 µg/mL. The minimum inhibitory concentration (isolate (source animal id): 254) was greater than 16 µg/mL, the minimum inhibitory concentration (isolate (source animal id): 255) was greater than 16 µg/mL and the minimum inhibitory concentration (isolate (source animal id): 256) was greater than 16 µg/mL. It also gave a minimum inhibitory concentration (isolate (source animal id): 257) greater than 16 µg/mL, a minimum inhibitory concentration (isolate (source animal id): 258) greater than 16 µg/mL and a minimum inhibitory concentration (isolate (source animal id): 259) greater than 16 µg/mL. For the same compound, the minimum inhibitory concentration (isolate (source animal id): 260) was greater than 16 µg/mL, the minimum inhibitory concentration (isolate (source animal id): 261) was greater than 16 µg/mL and the minimum inhibitory concentration (isolate (source animal id): 262) was greater than 16 µg/mL. For the same compound, the minimum inhibitory concentration (isolate (source animal id): 263) was greater than 16 µg/mL, the minimum inhibitory concentration (isolate (source animal id): 264) was greater than 16 µg/mL and the minimum inhibitory concentration (isolate (source animal id): 265) was greater than 16 µg/mL. The minimum inhibitory concentration (isolate (source animal id): 266) was greater than 16 µg/mL, the minimum inhibitory concentration (isolate (source animal id): 267) was greater than 16 µg/mL and the minimum inhibitory concentration (isolate (source animal id): 268) was greater than 16 µg/mL. For the same compound, the minimum inhibitory concentration (isolate (source animal id): 269) was greater than 16 µg/mL, the minimum inhibitory concentration (isolate (source animal id): 270) was greater than 16 µg/mL and the minimum inhibitory concentration (isolate (source animal id): 271) was greater than 16 µg/mL. The minimum inhibitory concentration (isolate (source animal id): 272) was greater than 16 µg/mL, the minimum inhibitory concentration (isolate (source animal id): 273) was greater than 16 µg/mL and the minimum inhibitory concentration (isolate (source animal id): 274) was greater than 16 µg/mL. It also gave a minimum inhibitory concentration (isolate (source animal id): 275) greater than 16 µg/mL, a minimum inhibitory concentration (isolate (source animal id): 276) greater than 16 µg/mL and a minimum inhibitory concentration (isolate (source animal id): 277) greater than 16 µg/mL. The minimum inhibitory concentration (isolate (source animal id): 278) was greater than 16 µg/mL, the minimum inhibitory concentration (isolate (source animal id): 279) was greater than 16 µg/mL and the minimum inhibitory concentration (isolate (source animal id): 280) was greater than 16 µg/mL.
